Test results from PMC11387829.
These are yes or no findings as the source states them, for the method shown. For part of these data: Binding seen in cells or lysates may run through a third protein. Some results given as binding are weak or reduced against the parent protein; the word gives no strength.

Sequences of proteins named here, by UniProt entry; tags and fusion partners are left off.
UniProt Q9HC98: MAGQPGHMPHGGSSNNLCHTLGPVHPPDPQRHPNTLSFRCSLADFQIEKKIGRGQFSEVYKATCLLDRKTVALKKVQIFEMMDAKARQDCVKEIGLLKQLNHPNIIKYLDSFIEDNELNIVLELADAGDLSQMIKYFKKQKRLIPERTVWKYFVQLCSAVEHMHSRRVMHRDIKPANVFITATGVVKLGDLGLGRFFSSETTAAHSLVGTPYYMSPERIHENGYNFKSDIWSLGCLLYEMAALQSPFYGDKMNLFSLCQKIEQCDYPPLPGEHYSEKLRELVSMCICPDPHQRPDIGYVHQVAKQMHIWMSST
UniProt O43524: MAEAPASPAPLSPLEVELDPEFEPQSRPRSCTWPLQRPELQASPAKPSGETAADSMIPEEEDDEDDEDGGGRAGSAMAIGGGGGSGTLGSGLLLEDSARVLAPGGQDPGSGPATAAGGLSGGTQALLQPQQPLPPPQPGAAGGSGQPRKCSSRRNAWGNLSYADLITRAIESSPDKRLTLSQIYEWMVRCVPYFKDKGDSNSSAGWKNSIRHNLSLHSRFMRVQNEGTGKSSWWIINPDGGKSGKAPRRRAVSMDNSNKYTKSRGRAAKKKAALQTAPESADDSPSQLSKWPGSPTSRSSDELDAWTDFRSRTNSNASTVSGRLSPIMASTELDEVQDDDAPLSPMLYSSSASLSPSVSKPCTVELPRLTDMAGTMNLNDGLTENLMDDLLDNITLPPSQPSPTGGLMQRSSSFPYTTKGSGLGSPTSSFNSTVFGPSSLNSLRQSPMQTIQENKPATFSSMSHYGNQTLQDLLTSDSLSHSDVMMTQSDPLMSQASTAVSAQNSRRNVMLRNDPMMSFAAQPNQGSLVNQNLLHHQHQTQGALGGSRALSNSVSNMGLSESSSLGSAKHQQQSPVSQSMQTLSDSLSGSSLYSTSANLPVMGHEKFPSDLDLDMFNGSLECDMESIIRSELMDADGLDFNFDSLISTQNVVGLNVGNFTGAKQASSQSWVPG
UniProt P01106: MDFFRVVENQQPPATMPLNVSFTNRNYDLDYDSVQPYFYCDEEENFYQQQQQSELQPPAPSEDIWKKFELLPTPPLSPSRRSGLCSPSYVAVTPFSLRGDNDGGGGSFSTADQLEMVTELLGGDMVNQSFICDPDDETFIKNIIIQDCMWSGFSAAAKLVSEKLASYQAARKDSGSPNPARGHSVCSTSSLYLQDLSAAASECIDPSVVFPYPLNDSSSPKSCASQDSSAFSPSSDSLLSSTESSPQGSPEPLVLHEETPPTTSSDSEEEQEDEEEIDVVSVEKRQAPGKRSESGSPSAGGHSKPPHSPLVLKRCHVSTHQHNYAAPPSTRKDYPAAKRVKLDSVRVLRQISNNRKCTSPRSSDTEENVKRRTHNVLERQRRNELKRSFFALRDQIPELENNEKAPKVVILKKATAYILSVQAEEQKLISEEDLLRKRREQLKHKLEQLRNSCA
UniProt Q969H0: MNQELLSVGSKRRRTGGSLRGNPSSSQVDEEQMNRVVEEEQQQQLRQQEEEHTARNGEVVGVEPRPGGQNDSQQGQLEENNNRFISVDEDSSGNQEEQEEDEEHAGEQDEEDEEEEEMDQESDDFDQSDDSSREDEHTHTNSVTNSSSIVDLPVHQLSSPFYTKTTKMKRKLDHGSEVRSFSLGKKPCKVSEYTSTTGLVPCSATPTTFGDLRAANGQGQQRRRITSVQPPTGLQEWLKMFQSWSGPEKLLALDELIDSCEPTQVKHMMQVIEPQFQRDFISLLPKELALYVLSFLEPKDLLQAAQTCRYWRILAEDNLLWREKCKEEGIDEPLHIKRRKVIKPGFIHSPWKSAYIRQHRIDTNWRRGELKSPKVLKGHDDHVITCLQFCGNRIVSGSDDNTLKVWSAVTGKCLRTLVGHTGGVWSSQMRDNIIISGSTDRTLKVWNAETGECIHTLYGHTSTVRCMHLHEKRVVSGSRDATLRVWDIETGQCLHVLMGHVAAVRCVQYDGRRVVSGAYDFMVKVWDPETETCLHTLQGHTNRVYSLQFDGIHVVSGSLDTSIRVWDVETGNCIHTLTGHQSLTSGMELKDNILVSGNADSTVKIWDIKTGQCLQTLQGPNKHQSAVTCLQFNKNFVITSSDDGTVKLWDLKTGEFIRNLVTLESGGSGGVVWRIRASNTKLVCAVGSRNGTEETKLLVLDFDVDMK

What was measured:
GST-NEK6-WT (human) = GST-NEK6-WT (human) (UniProt Q9HC98); assay: pull-down; His-FOXO3 protein mixed ('crosslinked') with GST or GST-NEK6 protein, incubated with antibodies and magnetic beads at 4 °C with rotation; western blot; both purified
[1] = target: His-FOXO3-WT (pCMV, expressed in cells) (UniProt O43524); assay: co-IP; exogenously overexpressed NEK6 or FOXO3; cell lysate incubated with antibodies and magnetic beads at 4 °C overnight; immunoblot
[2] = target: C-MYC (endogenous) (human (endogenous in the human cell lines of the study)) (UniProt P01106); assay: co-IP; endogenous C-MYC and FBXW7 in cells after introducing FOXO3-WT or FOXO3-S7A; lysate incubated with antibodies and magnetic beads at 4 °C overnight; immunoblot
[3] = target: NEK6 (endogenous) (human (endogenous in human ovarian cancer cell lines)) (UniProt Q9HC98); assay: co-IP; endogenous proteins; cell lysate (IP Lysis Buffer) incubated with antibodies and magnetic beads at 4 °C overnight; immunoblot
Flag-NEK6-WT (human) = Flag-NEK6-WT (human) (UniProt Q9HC98); assay: co-IP; exogenously overexpressed NEK6 or FOXO3; cell lysate incubated with antibodies and magnetic beads at 4 °C overnight; immunoblot
[4] = target: NEK6 (endogenous) (human (endogenous in human ovarian cancer cell lines)) (UniProt Q9HC98); assay: proximity ligation; NaveniFlex Cell MR on fixed, permeabilised chemosensitive and chemoresistant ovarian cancer cells; red fluorescence

Q: For “His-FOXO3-WT (pT7, E. coli) (from UniProt O43524 1-673)”, which binding (GST-NEK6-WT (human)) is on record?
A: Its binding is “binds”.

Q: “NEK6 (endogenous) (from UniProt Q9HC98 1-313) (enzyme)” was tested. Which binding [1] did it give?
A: Its binding is “binds”.

Q: Which binding [2] does the source give for “FBXW7 (endogenous) (from UniProt Q969H0 1-707)” here?
A: Its binding is “binds”.

Q: With “FOXO3 (endogenous) (from UniProt O43524 1-673)” as the substance, how does the binding [3] read?
A: Its binding is “binds”.

Q: What about the binding (Flag-NEK6-WT (human)) of the same substance?
A: The binding was “binds”.

Q: And the binding [4]?
A: Its binding is “binds”.
